Results published in patent US6875778B2, “Alkylene-tethered bis-nitroiminoimidazolidines, process for preparing the same, and insecticides containing the same” (Gifu University, priority 2002, dated 2005).
Some of these results come from one statement about several compounds together. At least one compound was matched to its structure with a doubt left.

Tested on: common cockroach
Assay: insecticidal activity against the common cockroach (abdominal injection, minimum lethal dose)
Assay type: in vivo
Details: based on log(1/MLD)
Description: The insecticidal activity against the common cockroach was tested for the compounds of Examples 1 to 14 and the compound of Comparative Example 1. Methanol solutions containing 1% by weight of each compound were prepared. 1 to 10 μl of the methanol solution were injected into the abdomens of 3 male adult common cockroaches. The concentration at which two of the three adult insects became paralyzed or died, namely the minimum lethal dose (MLD: moles/insect) was then investigated.

Row | SMILES | insecticidal performance as compared with the compound of Comparative Example 1
1 | O=[N+]([O-])N=C1N(Cc2ccc(Cl)nc2)CCN1Cc1cccc(CN2CCN(Cc3ccc(Cl)nc3)C2=N[N+](=O)[O-])c1 [Exp. 12, 1,3-bis[(6-chloronicotinyl)-2-nitroiminoimidazolidin-3-yl]methylbenzene] | higher
2 | O=[N+]([O-])N=C1N(CCCCCCCCCCN2CCN(Cc3ccc(Cl)nc3)C2=N[N+](=O)[O-])CCN1Cc1ccc(Cl)nc1 [Exp. 8, 1,10-bis[(6-chloronicotinyl)-2-nitroiminoimidazolidin-3-yl]decane] | higher
3 | O=[N+]([O-])N=C1N(CCCCCCN2CCN(Cc3cnc(Cl)s3)C2=N[N+](=O)[O-])CCN1Cc1cnc(Cl)s1 [Exp. 14, 1,6-bis[1-(2-chloro-5-thiazolylmethyl)-2-nitroiminoimidazolidin-3-yl]hexane] | higher
4 | O=[N+]([O-])N=C1N(CCCCN2CCN(Cc3ccc(Cl)nc3)C2=N[N+](=O)[O-])CCN1Cc1ccc(Cl)nc1 [Exp. 2, 1,4-bis[(6-chloronicotinyl)-2-nitroiminoimidazolidin-3-yl]butane] | higher
5 | O=[N+]([O-])N=C1N(CCCN2CCN(Cc3ccc(Cl)nc3)C2=N[N+](=O)[O-])CCN1Cc1ccc(Cl)nc1 [Exp. 1, 1,3-bis[(6-chloronicotinyl)-2-nitroiminoimidazolidin-3-yl]propane] | higher
6 | O=[N+]([O-])N=C1N(CCCCCCCCN2CCN(Cc3ccc(Cl)nc3)C2=N[N+](=O)[O-])CCN1Cc1ccc(Cl)nc1 [Exp. 6, 1,8-bis[(6-chloronicotinyl)-2-nitroiminoimidazolidin-3-yl]octane] | higher
7 | O=[N+]([O-])N=C1N(CCCCCCN2CCN(Cc3ccc(Cl)nc3)C2=N[N+](=O)[O-])CCN1Cc1ccc(Cl)nc1 [Exp. 4, 1,6-bis[(6-chloronicotinyl)-2-nitroiminoimidazolidin-3-yl]hexane] | higher
8 | O=[N+]([O-])N=C1N(Cc2ccc(CN3CCN(Cc4ccc(Cl)nc4)C3=N[N+](=O)[O-])cc2)CCN1Cc1ccc(Cl)nc1 [Exp. 13, 1,4-bis[(6-chloronicotinyl)-2-nitroiminoimidazolidin-3-yl]methylbenzene] | higher
9 | O=[N+]([O-])N=C1N(CCCCCCCCCN2CCN(Cc3ccc(Cl)nc3)C2=N[N+](=O)[O-])CCN1Cc1ccc(Cl)nc1 [Exp. 7, 1,9-bis[(6-chloronicotinyl)-2-nitroiminoimidazolidin-3-yl]nonane] | higher
10 | O=[N+]([O-])N=C1N(CCCCCCCN2CCN(Cc3ccc(Cl)nc3)C2=N[N+](=O)[O-])CCN1Cc1ccc(Cl)nc1 [Exp. 5, 1,7-bis[(6-chloronicotinyl)-2-nitroiminoimidazolidin-3-yl]heptane] | higher
